Data as given in PubChem BioAssay AID1259308 (NCATS, 2017).

Screen: 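Candidate targets for better recombinant protein yield in mammalian cells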 (primary screen)
System: human HEK293 embryonic kidney cells stably expressing firefly luciferase (HEK-CMV-Luc2-Hygro)
Reagent: single siRNA against human genes, 0.8 pmol siRNA per well
Timing: 72 h
Measured: 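Luciferase light (ONE-Glo) measured on one replicate plate set and viability (CellTiter-Glo) on the other, scaled to a negative control siRNA, with robust z-scores and luciferase per cell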
Scale: total luciferase, z-score and total luciferase, % of control: higher = more reporter protein produced
Call rule: 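An siRNA counts as active if its total luciferase robust z-score exceeds 3; genes with two or more such siRNAs out of three were retested with fresh siRNAs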
Meaning of the calls: active = raised luciferase; inactive = no rise
Here is an unselected part of about 59,000 reagents. About 1,510 of all reagents (2.6%) count as active. 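Calls use total luciferase alone and ignore viability, so some active siRNAs may act by altering cell number.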 Entries without a mark were called inactive. Not all columns of the deposit are shown.

MTMR1 (GeneID 8776) [SID160720777]
- total luciferase, z-score: -0.588
- total luciferase, % of control: 70.2

MTMR1 (GeneID 8776) [SID160720778]
- total luciferase, z-score: -0.517
- total luciferase, % of control: 71.6

MTMR1 (GeneID 8776) [SID160720779]
- total luciferase, z-score: -0.844
- total luciferase, % of control: 65.1

CHRNB4 (GeneID 1143) [SID160743439]
- total luciferase, z-score: -1.05
- total luciferase, % of control: 61.1

CHRNB4 (GeneID 1143) [SID160743450]
- total luciferase, z-score: -0.813
- total luciferase, % of control: 65.7

CHRNB4 (GeneID 1143) [SID160743461]
- total luciferase, z-score: -0.0179
- total luciferase, % of control: 81.5

PTPRE (GeneID 5791) [SID160715394]
- total luciferase, z-score: -0.905
- total luciferase, % of control: 63.9

PTPRE (GeneID 5791) [SID160715395]
- total luciferase, z-score: -0.323
- total luciferase, % of control: 75.5

PTPRE (GeneID 5791) [SID160715396]
- total luciferase, z-score: 0.19
- total luciferase, % of control: 85.7

SPAG5 (GeneID 10615) [SID160728864]
- total luciferase, z-score: 0.484
- total luciferase, % of control: 91.5

SPAG5 (GeneID 10615) [SID160728865]
- total luciferase, z-score: 0.121
- total luciferase, % of control: 84.3

SPAG5 (GeneID 10615) [SID160728866]
- total luciferase, z-score: 0.0553
- total luciferase, % of control: 83

PRR14L (GeneID 253143) [SID160762054]
- total luciferase, z-score: -1.72
- total luciferase, % of control: 47.8

PRR14L (GeneID 253143) [SID160762057]
- total luciferase, z-score: 0.545
- total luciferase, % of control: 92.7

PRR14L (GeneID 253143) [SID160762058]
- total luciferase, z-score: 2.27
- total luciferase, % of control: 127

TFPI (GeneID 7035) [SID160717971]
- total luciferase, z-score: -0.371
- total luciferase, % of control: 74.5

TFPI (GeneID 7035) [SID160717972]
- total luciferase, z-score: -0.0554
- total luciferase, % of control: 80.8

TFPI (GeneID 7035) [SID160717973]
- total luciferase, z-score: -0.0572
- total luciferase, % of control: 80.7

DUX4L16 (GeneID 728169) [SID160726587]
- total luciferase, z-score: -0.284
- total luciferase, % of control: 76.2

DUX4L16 (GeneID 728169) [SID160726588]
- total luciferase, z-score: -0.31
- total luciferase, % of control: 75.7

DUX4L16 (GeneID 728169) [SID160771543]
- total luciferase, z-score: -0.103
- total luciferase, % of control: 79.8

SRGAP1 (GeneID 57522) [SID160746172]
- total luciferase, z-score: -0.214
- total luciferase, % of control: 77.6

SRGAP1 (GeneID 57522) [SID160746173]
- total luciferase, z-score: 1.93
- total luciferase, % of control: 120

SRGAP1 (GeneID 57522) [SID160746174]
- total luciferase, z-score: -1.24
- total luciferase, % of control: 57.2

OR6V1 (GeneID 346517) [SID160764901]
- total luciferase, z-score: 1.25
- total luciferase, % of control: 107

OR6V1 (GeneID 346517) [SID160764902]
- total luciferase, z-score: 1.76
- total luciferase, % of control: 117

OR6V1 (GeneID 346517) [SID160764903]
- total luciferase, z-score: 0.122
- total luciferase, % of control: 84.3

LOC441722 (GeneID 441722) [SID160725444]
- total luciferase, z-score: 0.375
- total luciferase, % of control: 89.3

LOC441722 (GeneID 441722) [SID160768071]
- total luciferase, z-score: -0.963
- total luciferase, % of control: 62.7

LOC441722 (GeneID 441722) [SID160768072]
- total luciferase, z-score: -0.836
- total luciferase, % of control: 65.3

RANGRF (GeneID 29098) [SID160724374]
- total luciferase, z-score: 0.387
- total luciferase, % of control: 89.6

RANGRF (GeneID 29098) [SID160724375]
- total luciferase, z-score: 0.732
- total luciferase, % of control: 96.5

RANGRF (GeneID 29098) [SID160739060]
- total luciferase, z-score: 0.594
- total luciferase, % of control: 93.7

Not a retest: an excerpt of the list.
PTPRE (GeneID 5791) [SID160715395]
- total luciferase, z-score: -0.323
- total luciferase, % of control: 75.5

PTPRE (GeneID 5791) [SID160715396]
- total luciferase, z-score: 0.19
- total luciferase, % of control: 85.7

SPAG5 (GeneID 10615) [SID160728864]
- total luciferase, z-score: 0.484
- total luciferase, % of control: 91.5
